Entries after “also recorded” stand apart in the source; their conditions may differ. For at least one compound, name, drawing or mass did not settle the structure.
Columns and labels:
[1] = tested on: VSV-GFP; type: cell-based, Vesicular Stomatitis Virus
[2] = tested on: VSV-GFP; type: cell-based, Vesicular Stomatitis Virus; remark: listed apart in the source
[3] = tested on: ERK1/2; type: cell-based, human
[4] = tested on: HeLa cells
[5] = tested on: VSV-induced mRNA export block; type: cell-based, human

SMILES | Attenuation of viral titers by pretreatment [1] | VSV protein expression [2] | VSV protein concentrations [2] | VSV protein levels in supernatants and lysates [2] | VSV-protein levels in supernatants and cell lysates [2] | ERK protein level [3] | Combined effect with VSV on cell killing [4] | Viral mRNA export block [5]
CC[C@H](C)C(=O)O[C@H]1C[C@H](O)C=C2C=C[C@H](C)[C@H](CC[C@@H](O)C[C@@H](O)CC(=O)O)[C@H]21 [pravastatin] | not by pravastatin pretreatment | failed to alter |  |  |  |  |  | 
CCC(C)(C)C(=O)O[C@H]1C[C@@H](C)C=C2C=C[C@H](C)[C@H](CC[C@@H]3C[C@@H](O)CC(=O)O3)[C@H]21 [simvastatin] | attenuated |  | reduced to substantially undetectable levels | decreased | increased | upregulated and fell | synergistic effect | partially reversed; also recorded: induced recovery from viral mRNA export block
